According to patent publication US20240182460A1, “ALLOSTERIC CHROMENONE INHIBITORS OF PHOSPHOINOSITIDE 3-KINASE (PI3K) FOR THE TREATMENT OF DISEASE” (PETRA PHARMA CORPORATION, priority 2022, published 2024):
Some results were stated once for a whole list of compounds, not compound by compound.

Amino acid sequences for entries named in this document (tags omitted).
UniProt P42336, whole entry H1047R: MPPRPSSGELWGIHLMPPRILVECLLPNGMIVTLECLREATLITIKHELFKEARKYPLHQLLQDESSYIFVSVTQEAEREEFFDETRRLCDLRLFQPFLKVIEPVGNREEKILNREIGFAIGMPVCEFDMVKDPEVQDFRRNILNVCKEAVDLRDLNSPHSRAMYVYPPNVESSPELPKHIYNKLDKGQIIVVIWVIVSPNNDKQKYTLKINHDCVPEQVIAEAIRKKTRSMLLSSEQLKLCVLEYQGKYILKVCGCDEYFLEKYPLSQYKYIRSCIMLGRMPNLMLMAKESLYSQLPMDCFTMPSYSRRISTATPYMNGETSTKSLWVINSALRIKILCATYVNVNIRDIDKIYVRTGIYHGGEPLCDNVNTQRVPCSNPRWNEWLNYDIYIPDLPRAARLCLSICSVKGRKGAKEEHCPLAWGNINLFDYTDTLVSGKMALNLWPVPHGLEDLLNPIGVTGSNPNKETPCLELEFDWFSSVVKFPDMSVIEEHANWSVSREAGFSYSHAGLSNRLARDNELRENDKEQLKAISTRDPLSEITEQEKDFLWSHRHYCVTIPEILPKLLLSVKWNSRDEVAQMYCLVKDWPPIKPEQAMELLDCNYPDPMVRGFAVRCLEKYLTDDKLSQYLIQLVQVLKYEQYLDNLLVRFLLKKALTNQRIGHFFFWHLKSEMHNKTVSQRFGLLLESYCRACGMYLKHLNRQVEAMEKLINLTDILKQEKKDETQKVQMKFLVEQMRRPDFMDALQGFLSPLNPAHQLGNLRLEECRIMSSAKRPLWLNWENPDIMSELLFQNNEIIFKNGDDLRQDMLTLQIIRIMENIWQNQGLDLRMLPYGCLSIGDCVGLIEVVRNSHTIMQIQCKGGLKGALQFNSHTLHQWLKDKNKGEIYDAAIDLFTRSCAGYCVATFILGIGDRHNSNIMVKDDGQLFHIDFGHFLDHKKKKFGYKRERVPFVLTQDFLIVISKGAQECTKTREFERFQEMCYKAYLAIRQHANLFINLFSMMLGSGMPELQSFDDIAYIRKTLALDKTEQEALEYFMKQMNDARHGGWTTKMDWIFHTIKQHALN

Tests used:
CYP3A4 = CYP3A4 induction in primary human hepatocytes (mRNA level and enzyme activity); format: in vitro ADME; conditions: compound at 1 μM, 72 hours of treatment
PI3Kα H1047R = molecular target: T1, PI3Kα H1047R (Homo sapiens, UniProt P42336, H1047R); assay: PI3Kα H1047R mutant in vitro cell based assay, MDA-MB-453 cells (AlphaLisa SureFire); conditions: IC50 in SKBR3 divided by IC50 in MDA-MB-453
T1 construct: The MDA-MB-453 (ATCC-HTB-131) cell line (PI3Kα H1047R); host or cells: MDA-MB-453
Source text: PI3K-Alpha Kinase (PI3Kα) Activity: Wild-Type PI3Kα, H1047R Mutant PI3Kα, and E545K Mutant PI3Kα In Vitro Cell Based Assays and Determination of IC50 Values for Inhibitors
The MDA-MB-453 (ATCC-HTB-131) cell line (PI3Kα H1047R) and MCF-7 (ATCC-HTB-22) cell line (PI3Kα E545K), MDA-MB-361 (ATCC-HTB-27) cell line (PI3Kα E545K), and SKBR3 (ATCC-HTB-30) cell line (wild type PI3Kα) were obtained from the American Type Culture Collection (Manassas, VA). MDA-MB-453 cells were maintained in Dulbecco's Modified Eagle Media (DMEM, Gibco 12430) supplemented with 10% Fetal Bovine Serum, heat inactivated (FBS HI, Gibco 10082), 1× non-essential amino acids (NEAA, Gibco 11140), 1 mM sodium pyruvate (Gibco 11360) and 1× Anti-Anti (Gibco 15240). MCF-7 cells were maintained in Minimum Essential Media (MEM) (Gibco 11095) supplemented with 10% Fetal Bovine Serum, heat inactivated (FBS HI, Gibco 10082), 1× non-essential amino acids (NEAA, Gibco 11140), 1 mM sodium pyruvate (Gibco 11360), 1× Anti-Anti (Gibco 15240) and 10 μg/mL human insulin (Sigma I 9278). MDA-MB-361 cells were maintained in Dulbecco's Modified Eagle Media (DMEM, Gibco 12430) supplemented with 20% Fetal Bovine Serum, heat inactivated (FBS HI, Gibco 10082), 1× non-essential amino acids (NEAA, Gibco 11140), 1 mM sodium pyruvate (Gibco 11360) and 1× Anti-Anti (Gibco 15240). SKBR3 cells were maintained in McCoy's 5A (Gibco 16600) supplemented with 10% Fetal Bovine Serum, heat inactivated (FBS HI, Gibco 10082), and 1× Anti-Anti (Gibco 15240). Cultures were maintained in a humidified incubator at 37° C. under 5% CO2/95% air.
For compound testing in 0% FBS, MDA-MB-453, MCF-7 and SKBR3 cells were seeded at a density of 1.5×10^4, 1.0×10^4, and 1.0×10^4 cells, respectively, per well in white 384-well plates in 20 μl of Minimum Essential Media (MEM) assay media with 1×NEAA, 1 mM sodium pyruvate, and 1 μg/mL human insulin (Sigma 19278) (Assay Medium); while MDA-MB-361 cells were seeded at a density of 1.5×10^4 per well in white 384-well plates in 20 μl Assay Medium without insulin. After plating, cells were allowed to attach overnight. Compounds dissolved in 10 mM stock solutions in DMSO were serially diluted 1:3 in DMSO to generate a 10-point dilution series and plated using an acoustic liquid handler system (Echo 550 Series Liquid Handler, Labcyte). A 5× intermediate compound dilution plate in MEM with 1×NEAA and 1 mM sodium pyruvate (150 μM starting compound concentration in 1.5% DMSO) was then prepared. Five μl of the intermediate serially diluted compounds were added to the cell plate to final concentrations ranging from […] in 0.3% DMSO. 0.3% DMSO alone was used to establish the maximum (MAX) signal and GDC-0032 at a final concentration of 1 μM was used as a reference compound for the minimum (MIN) signal. After 3 hours treatment, the medium was removed, and the cells were lysed in 10 μL of 1× SureFire Lysis buffer with shaking for 10 minutes at room temperature. The Acceptor Mix (Reaction Buffer 1+Reaction Buffer 2+Activation Buffer+SureFire Ultra Acceptor Beads) was prepared by diluting Activation buffer 25-fold in combined Reaction Buffer 1 and Reaction Buffer 2.
The Acceptor beads were diluted 50-fold in the combined Reaction Buffers. Five μL of Acceptor Mix was added to each well, the plate was sealed and covered with foil and incubated for 1 hour at room temperature. The Donor Mix (dilution buffer+SureFire Ultra Donor Beads) was prepared by diluting Donor Beads 50-fold in dilution buffer. Five μL of the Donor Mix was added to each well and the plate sealed and covered with foil and incubated for 1-2 hours at room temperature in the dark. The plates were read on a Neo2 plate reader instrument from Biotek using standard AlphaLisa settings.
Compounds were tested in duplicate and the % inhibition at each compound concentration was used to generate two dose response curves. One IC50 was generated using average % inhibition at each compound concentration. […]

[1] = Metabolic stability and intrinsic clearance in human hepatocytes (HEPS); format: in vitro ADME; conditions: human hepatocytes 0.5×10^6 cells/mL, 1 μM compound

In the case of `Cc1cc([C@@H](C)Oc2ccc(Cl)nc2S(C)(=N)=O)c2oc(-c3cnn(CCO)c3)c(C)c(=O)c2c1` (some centres unmarked) [Example 28B], the “CYP3A4 mRNA fold induction level” value (CYP3A4) is reported as “less than 3.0 ×” and the “fold-selectivity for PI3K-Alpha kinase H1047R mutant versus wild-type” value (from here on “fold-selectivity”) (PI3Kα H1047R) is reported as “greater than 50 ×”.
In the case of `Cc1cc([C@@H](C)Oc2ccc(Cl)nc2)c2oc(-c3ccccc3)c(C)c(=O)c2c1` [Example 7, 8-[(1R)-1-[(6-Chloro-3-pyridyl)oxy]ethyl]-3,6-dimethyl-2-phenyl-chromen-4-one], the “intrinsic clearance in human HEPS” value [1] is reported as “less than 50 μL/min/1×10^6 cells”.
With `Cc1cc([C@@H](C)Oc2ccccc2-c2noc(=O)[nH]2)c2oc(-c3ccccc3)c(C)c(=O)c2c1` [Example 4, 3-[2-[(1R)-1-(3,6-Dimethyl-4-oxo-2-phenyl-chromen-8-yl)ethoxy]phenyl]-4H-1,2,4-oxadiazol-5-one] the “intrinsic clearance in human HEPS” value [1] was “less than 50 μL/min/1×10^6 cells”.
For `Cc1cc([C@@H](C)Oc2ccc(F)nc2S(N)(=O)=O)c2oc(-c3cnn(C)c3)c(C)c(=O)c2c1` [Example 26B, 3-[(1R)-1-[3,6-Dimethyl-2-(1-methylpyrazol-4-yl)-4-oxo-chromen-8-yl]ethoxy]-6-fluoro-pyridine-2-sulfonamide], the “CYP3A4 mRNA fold induction level” value (CYP3A4) was “less than 3.0 ×” and the “fold-selectivity” value (PI3Kα H1047R) was “greater than 20 ×”.
In the case of `Cc1cc([C@@H](C)Oc2ccc(Cl)nc2S(N)(=O)=O)c2oc(-c3cnn(C)c3)c(C#N)c(=O)c2c1` [Example 25B, 6-Chloro-3-[(1R)-1-[3-cyano-6-methyl-2-(1-methylpyrazol-4-yl)-4-oxo-chromen-8-yl]ethoxy]pyridine-2-sulfonamide], the “CYP3A4 mRNA fold induction level” value (CYP3A4) is reported as “less than 3.0 ×” and the “fold-selectivity” value (PI3Kα H1047R) is reported as “greater than 20 ×”.
With `Cc1cc([C@@H](C)Oc2ccc(Cl)nc2S(N)(=O)=O)c2oc(-c3cnn(CC(C)(C)O)c3)c(C)c(=O)c2c1` [Example 2B, 6-Chloro-3-[(1R)-1-[2-[1-(2-hydroxy-2-methyl-propyl)pyrazol-4-yl]-3,6-dimethyl-4-oxo-chromen-8-yl]ethoxy]pyridine-2-sulfonamide] the “CYP3A4 mRNA fold induction level” value (CYP3A4) was “less than 3.0 ×” and the “fold-selectivity” value (PI3Kα H1047R) was “greater than 50 ×”.
In the case of `Cc1cc([C@@H](C)Oc2ccc(Cl)nc2S(N)(=O)=O)c2oc(-c3cnn(CCO)c3)c(C)c(=O)c2c1` [Example 61A, 6-Chloro-3-[(1R)-1-[2-[1-(2-hydroxyethyl)pyrazol-4-yl]-3,6-dimethyl-4-oxo-chromen-8-yl]ethoxy]pyridine-2-sulfonamide], the “CYP3A4 mRNA fold induction level” value (CYP3A4) is reported as “less than 3.0 ×” and the “fold-selectivity” value (PI3Kα H1047R) is reported as “greater than 20 ×”.
For `Cc1cc([C@@H](C)Oc2ccc(Cl)nc2S(N)(=O)=O)c2oc(-c3cnn(C)n3)c(C)c(=O)c2c1` [Example 35A, 6-Chloro-3-[(1R)-1-[3,6-dimethyl-2-(2-methyltriazol-4-yl)-4-oxo-chromen-8-yl]ethoxy]pyridine-2-sulfonamide], the “CYP3A4 mRNA fold induction level” value (CYP3A4) was “less than 3.0 ×” and the “fold-selectivity” value (PI3Kα H1047R) was “greater than 50 ×”.
In the case of `Cc1cc([C@@H](C)Oc2ccc(Cl)nc2S(N)(=O)=O)c2oc(-c3cnn(C[C@H](C)O)c3)c(C)c(=O)c2c1` [Example 7B, 6-Chloro-3-[(1R)-1-[2-[1-[(2S)-2-hydroxypropyl]pyrazol-4-yl]-3,6-dimethyl-4-oxo-chromen-8-yl]ethoxy]pyridine-2-sulfonamide], the “fold-selectivity” value (PI3Kα H1047R) is reported as “greater than 50 ×”.
In the case of `Cc1cc([C@@H](C)Oc2ccc(F)cc2S(N)(=O)=O)c2oc(C3CC3)c(C)c(=O)c2c1` [Example 107C, 2-[(1R)-1-(2-Cyclopropyl-3,6-dimethyl-4-oxo-chromen-8-yl)ethoxy]-5-fluoro-benzenesulfonamide], the “fold-selectivity” value (PI3Kα H1047R) is reported as “greater than 50 ×”.
For `Cc1cc([C@@H](C)Oc2ccc(Cl)nc2S(N)(=O)=O)c2oc(-c3cccc(C#N)c3)c(C)c(=O)c2c1` [Example 24C, 6-Chloro-3-[(1R)-1-[2-(3-cyanophenyl)-3,6-dimethyl-4-oxo-chromen-8-yl]ethoxy]pyridine-2-sulfonamide], the “fold-selectivity” value (PI3Kα H1047R) was “greater than 20 ×”.
With `Cc1cc([C@@H](C)Oc2ccc(Cl)nc2C(N)=O)c2oc(-c3ccc4nn(C)cc4c3)c(C)c(=O)c2c1` [Example 11A, 6-Chloro-3-[(1R)-1-[3,6-dimethyl-2-(2-methylindazol-5-yl)-4-oxo-chromen-8-yl]ethoxy]pyridine-2-carboxamide] the “fold-selectivity” value (PI3Kα H1047R) was “greater than 20 ×”.
For `CONC(=O)c1nc(Cl)ccc1O[C@H](C)c1cc(C)cc2c(=O)c(C)c(-c3cncc(F)c3)oc12` [Example 56A, 6-Chloro-3-[(1R)-1-[2-(5-fluoro-3-pyridyl)-3,6-dimethyl-4-oxo-chromen-8-yl]ethoxy]-N-methoxy-pyridine-2-carboxamide], the “CYP3A4 mRNA fold induction level” value (CYP3A4) was “less than 3.0 ×” and the “fold-selectivity” value (PI3Kα H1047R) was “greater than 20 ×”.
In the case of `Cc1cc([C@@H](C)Oc2ccc(Cl)nc2C(N)=O)c2oc(-c3ccc4nn(C)cc4c3)cc(=O)c2c1` [Example 52A, 6-Chloro-3-[(1R)-1-[6-methyl-2-(2-methylindazol-5-yl)-4-oxo-chromen-8-yl]ethoxy]pyridine-2-carboxamide], the “fold-selectivity” value (PI3Kα H1047R) is reported as “greater than 20 ×”.
With `Cc1cc([C@@H](C)Oc2ccc(Cl)nc2S(N)(=O)=O)c2oc(-c3cnc(C)nc3)c(C)c(=O)c2c1` [Example 78A, 6-Chloro-3-[(1R)-1-[3,6-dimethyl-2-(2-methylpyrimidin-5-yl)-4-oxo-chromen-8-yl]ethoxy]pyridine-2-sulfonamide] the “fold-selectivity” value (PI3Kα H1047R) was “greater than 20 ×”.
With `Cc1cc([C@@H](C)Oc2ccc(Cl)nc2-c2noc(=O)[nH]2)c2oc(-c3cccc(F)n3)c(C)c(=O)c2c1` [Example 8A, 3-[6-Chloro-3-[(1R)-1-[2-(6-fluoro-2-pyridyl)-3,6-dimethyl-4-oxo-chromen-8-yl]ethoxy]-2-pyridyl]-4H-1,2,4-oxadiazol-5-one] the “fold-selectivity” value (PI3Kα H1047R) was “greater than 20 ×”.
For `CONC(=O)c1nc(Cl)ccc1O[C@H](C)c1cc(C)cc2c(=O)c(C)c(-c3ccccn3)oc12` [Example 55A, 6-Chloro-3-[(1R)-1-[3,6-dimethyl-4-oxo-2-(2-pyridyl)chromen-8-yl]ethoxy]-N-methoxy-pyridine-2-carboxamide], the “fold-selectivity” value (PI3Kα H1047R) was “greater than 20 ×”.
In the case of `Cc1cc([C@@H](C)Oc2ccc(Cl)nc2-c2noc(=O)[nH]2)c2oc(-c3cnc4c(c3)OCO4)c(C)c(=O)c2c1` [Example 39A, 3-[6-Chloro-3-[(1R)-1-[2-([1,3]dioxolo[4,5-b]pyridin-6-yl)-3,6-dimethyl-4-oxo-chromen-8-yl]ethoxy]-2-pyridyl]-4H-1,2,4-oxadiazol-5-one], the “fold-selectivity” value (PI3Kα H1047R) is reported as “greater than 20 ×”.
In the case of `Cc1cc([C@@H](C)Oc2ccc(Cl)nc2S(N)(=O)=O)c2oc(-c3cnc4c(c3)OCO4)c(C)c(=O)c2c1` [Example 15A, 6-Chloro-3-[(1R)-1-[2-([1,3]dioxolo[4,5-b]pyridin-6-yl)-3,6-dimethyl-4-oxo-chromen-8-yl]ethoxy]pyridine-2-sulfonamide], the “fold-selectivity” value (PI3Kα H1047R) is reported as “greater than 50 ×”.
